# Measured values from US7186530B1, “Protein associated with cell stress response” (Chiron Corporation, priority 2000, dated 2007).
# At least one structure is not confirmed: it was looked up by name or label, or the drawing left a doubt.
# Test system: p46 hyperphosphorylation
# Test: p46 (Nogo B) hyperphosphorylation after UVC irradiation in presence of inhibitors, Western blot with SC-54
# Assay type: cell-based, human
# Details: 50 nM
# Description: FIG. 5. […] Then cells were irradiated with 20 J/m^2 of UVC and lysed 30 minutes later. Whole cell lysates were separated on SDS-PAGE. SC-54 was used for Western Blotting.
# Cell culture and treatment. Normal human fibroblast IMR90 was purchased from American Type Culture Collection (Manassas, Va.). Cells were routinely cultured in Dulbecco's Modified Eagle's Medium (DMEM) containing 10% fetal bovine serum, 2 mM L-glutamine, 4.5 g/liter glucose, 100 units penicillin and 100 μg streptomycin at 37° C. under an atmosphere of 5% CO2. For UV irradiation, cells were washed twice with phosphate-buffered saline (PBS) and then irradiated with appropriate doses of UVC (254 nm). Fresh complete medium was added back and cells were lysed at appropriate times. For treatment with BPDE, cells were washed with PBS twice and fresh DMEM was added. BPDE was dissolved in anhydrous dimethyl sulfoxide (DMSO) and appropriate amount of BPDE solution was added to DMEM. Cells were lysed 30 minutes later.
# Western Blotting. Lysates prepared from equal number of cells were mixed with equal volume of 2× sample buffer (50 mM Tris.HCl, pH 6.9, 9% glycerol, 2.3% SDS, 0.1% bromophenol blue and 10% mecaptoethanol) and the proteins were separated on a SDS/polyacrylamide gel. The proteins were then electroblotted onto an Immobilon-P membrane (Millipore, Bedford, Mass.). […]
smiles,measurement,value
COC[C@H]1OC(=O)c2coc3c2[C@@]1(C)C1=C(C3=O)[C@@H]2CCC(=O)[C@@]2(C)C[C@H]1OC(C)=O [wortmannin],p46 hyperphosphorylation,not affected
